No constants are given. Whether binding was seen depends on the method and setting. Binding seen in cells or lysates may run through a third protein. A yes stands for co-enrichment or nearness to the bait. Other partners may have been found. For part of these data: A no says only that the protein was not detected with the bait. For part of these data: Tags and fused reporters may be left off the sequences shown.
How the values were obtained:
myc-BirA-plakophilin 2a = biological target: T1, myc-BirA-plakophilin 2a (UniProt Q99959); assay: proximity labelling
T1 sequence: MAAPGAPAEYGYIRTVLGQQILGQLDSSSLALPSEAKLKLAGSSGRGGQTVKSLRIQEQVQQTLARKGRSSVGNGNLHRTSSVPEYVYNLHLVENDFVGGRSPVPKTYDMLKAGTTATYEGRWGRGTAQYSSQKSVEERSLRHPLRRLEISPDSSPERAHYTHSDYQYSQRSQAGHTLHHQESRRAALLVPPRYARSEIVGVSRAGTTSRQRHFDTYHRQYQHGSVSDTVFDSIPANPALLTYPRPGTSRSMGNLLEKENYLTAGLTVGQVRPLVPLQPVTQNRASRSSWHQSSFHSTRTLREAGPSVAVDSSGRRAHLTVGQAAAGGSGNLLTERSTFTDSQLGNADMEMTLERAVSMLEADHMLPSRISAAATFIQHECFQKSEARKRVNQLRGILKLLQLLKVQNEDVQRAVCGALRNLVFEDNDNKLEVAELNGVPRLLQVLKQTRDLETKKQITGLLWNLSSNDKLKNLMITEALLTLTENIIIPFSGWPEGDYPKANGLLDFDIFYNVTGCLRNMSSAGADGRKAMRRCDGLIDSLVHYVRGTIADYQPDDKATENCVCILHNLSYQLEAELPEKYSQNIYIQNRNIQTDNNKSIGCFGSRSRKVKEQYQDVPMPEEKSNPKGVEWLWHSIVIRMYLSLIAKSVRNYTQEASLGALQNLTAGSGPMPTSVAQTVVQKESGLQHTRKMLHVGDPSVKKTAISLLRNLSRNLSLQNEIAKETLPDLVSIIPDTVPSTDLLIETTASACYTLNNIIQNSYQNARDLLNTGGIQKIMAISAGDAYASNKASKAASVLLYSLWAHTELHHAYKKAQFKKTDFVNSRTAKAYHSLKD

The chains behind the UniProt entries cited, without tags or fusion partners. Where a name states a change or a piece, a line headed by the entry shows the natural chain unless it says otherwise.
UniProt Q02487: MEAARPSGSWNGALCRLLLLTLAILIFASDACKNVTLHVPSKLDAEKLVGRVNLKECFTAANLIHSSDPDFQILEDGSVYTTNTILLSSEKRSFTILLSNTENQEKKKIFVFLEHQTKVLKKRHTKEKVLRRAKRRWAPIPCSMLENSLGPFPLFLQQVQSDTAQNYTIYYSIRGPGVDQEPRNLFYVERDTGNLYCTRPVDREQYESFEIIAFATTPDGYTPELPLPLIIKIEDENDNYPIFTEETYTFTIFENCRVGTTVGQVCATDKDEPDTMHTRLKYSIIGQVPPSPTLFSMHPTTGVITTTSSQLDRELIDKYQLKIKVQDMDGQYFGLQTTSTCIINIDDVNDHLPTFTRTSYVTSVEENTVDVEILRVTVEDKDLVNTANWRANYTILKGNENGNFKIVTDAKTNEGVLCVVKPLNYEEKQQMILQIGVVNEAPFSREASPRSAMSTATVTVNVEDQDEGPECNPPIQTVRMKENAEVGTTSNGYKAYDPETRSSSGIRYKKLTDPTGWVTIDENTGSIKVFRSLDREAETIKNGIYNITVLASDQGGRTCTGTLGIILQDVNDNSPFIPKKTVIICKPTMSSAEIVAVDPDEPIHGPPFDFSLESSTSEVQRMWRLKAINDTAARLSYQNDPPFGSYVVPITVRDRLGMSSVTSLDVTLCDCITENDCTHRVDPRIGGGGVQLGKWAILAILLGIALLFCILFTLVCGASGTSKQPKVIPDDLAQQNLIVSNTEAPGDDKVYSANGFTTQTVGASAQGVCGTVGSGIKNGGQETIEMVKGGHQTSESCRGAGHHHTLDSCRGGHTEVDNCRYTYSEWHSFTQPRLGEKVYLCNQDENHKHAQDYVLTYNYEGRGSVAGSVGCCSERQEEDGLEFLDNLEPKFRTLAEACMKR
UniProt P42929: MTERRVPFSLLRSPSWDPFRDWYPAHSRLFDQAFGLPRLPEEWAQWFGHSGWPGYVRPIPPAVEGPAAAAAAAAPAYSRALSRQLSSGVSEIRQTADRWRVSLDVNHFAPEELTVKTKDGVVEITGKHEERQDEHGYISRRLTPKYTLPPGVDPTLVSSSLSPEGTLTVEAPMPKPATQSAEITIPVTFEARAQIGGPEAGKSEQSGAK
UniProt A0A8I3N1D8: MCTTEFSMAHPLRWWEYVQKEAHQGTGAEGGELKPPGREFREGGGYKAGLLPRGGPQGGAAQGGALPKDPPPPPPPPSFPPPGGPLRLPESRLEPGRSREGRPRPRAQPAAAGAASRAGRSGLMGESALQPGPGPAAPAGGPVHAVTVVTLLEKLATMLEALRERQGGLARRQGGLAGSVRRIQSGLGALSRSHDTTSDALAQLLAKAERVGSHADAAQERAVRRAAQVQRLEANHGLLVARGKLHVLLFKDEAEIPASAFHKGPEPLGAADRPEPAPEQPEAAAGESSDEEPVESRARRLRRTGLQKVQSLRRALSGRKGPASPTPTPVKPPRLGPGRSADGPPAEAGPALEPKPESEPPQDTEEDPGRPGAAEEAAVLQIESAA
UniProt A0A8I3PHM6: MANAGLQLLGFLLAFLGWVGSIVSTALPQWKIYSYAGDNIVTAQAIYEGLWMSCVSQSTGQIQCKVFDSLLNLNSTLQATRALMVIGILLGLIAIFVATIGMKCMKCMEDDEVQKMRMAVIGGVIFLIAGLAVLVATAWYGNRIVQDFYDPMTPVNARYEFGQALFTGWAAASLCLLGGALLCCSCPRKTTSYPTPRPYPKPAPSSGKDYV
UniProt Q6YKA4: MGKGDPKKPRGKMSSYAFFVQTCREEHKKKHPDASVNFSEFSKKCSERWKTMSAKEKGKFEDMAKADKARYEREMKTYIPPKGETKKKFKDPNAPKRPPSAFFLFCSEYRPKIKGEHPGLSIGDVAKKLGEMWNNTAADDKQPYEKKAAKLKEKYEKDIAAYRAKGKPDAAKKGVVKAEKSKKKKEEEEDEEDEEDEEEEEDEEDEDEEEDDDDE
UniProt A0A8I3P9Q5: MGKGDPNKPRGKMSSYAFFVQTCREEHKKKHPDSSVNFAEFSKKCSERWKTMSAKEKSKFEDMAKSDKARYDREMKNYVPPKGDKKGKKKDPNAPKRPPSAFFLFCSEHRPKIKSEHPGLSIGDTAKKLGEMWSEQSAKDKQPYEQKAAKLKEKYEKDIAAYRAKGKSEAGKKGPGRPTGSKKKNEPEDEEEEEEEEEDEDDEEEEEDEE
UniProt A0A8I3NQ19: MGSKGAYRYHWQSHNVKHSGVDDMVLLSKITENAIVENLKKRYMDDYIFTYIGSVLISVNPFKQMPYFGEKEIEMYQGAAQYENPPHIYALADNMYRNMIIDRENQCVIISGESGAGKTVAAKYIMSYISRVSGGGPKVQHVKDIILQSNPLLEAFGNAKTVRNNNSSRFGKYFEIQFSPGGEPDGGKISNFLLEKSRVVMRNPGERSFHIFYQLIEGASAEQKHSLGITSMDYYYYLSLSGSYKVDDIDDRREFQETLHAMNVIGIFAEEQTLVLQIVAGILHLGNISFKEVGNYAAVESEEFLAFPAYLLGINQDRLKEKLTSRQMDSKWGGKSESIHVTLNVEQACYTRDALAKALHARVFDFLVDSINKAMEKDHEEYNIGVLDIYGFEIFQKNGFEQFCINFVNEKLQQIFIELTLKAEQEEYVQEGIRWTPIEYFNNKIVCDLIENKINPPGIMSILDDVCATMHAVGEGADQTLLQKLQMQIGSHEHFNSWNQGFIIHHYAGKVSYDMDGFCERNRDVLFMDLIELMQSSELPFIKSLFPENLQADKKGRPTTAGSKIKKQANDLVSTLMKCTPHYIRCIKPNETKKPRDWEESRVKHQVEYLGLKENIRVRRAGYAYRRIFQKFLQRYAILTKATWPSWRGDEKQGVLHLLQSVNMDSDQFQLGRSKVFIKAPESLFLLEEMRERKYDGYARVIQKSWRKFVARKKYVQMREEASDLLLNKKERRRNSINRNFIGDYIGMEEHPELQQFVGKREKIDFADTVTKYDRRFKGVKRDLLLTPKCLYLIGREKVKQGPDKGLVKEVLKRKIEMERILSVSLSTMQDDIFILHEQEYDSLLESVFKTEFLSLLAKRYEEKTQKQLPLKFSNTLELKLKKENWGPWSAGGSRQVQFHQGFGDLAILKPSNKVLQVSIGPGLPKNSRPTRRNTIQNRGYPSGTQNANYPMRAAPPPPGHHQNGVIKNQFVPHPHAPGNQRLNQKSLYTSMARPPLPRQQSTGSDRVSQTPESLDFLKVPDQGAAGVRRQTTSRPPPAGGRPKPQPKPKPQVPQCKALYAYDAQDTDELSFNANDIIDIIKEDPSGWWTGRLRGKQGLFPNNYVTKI
UniProt A0A8I3MR05: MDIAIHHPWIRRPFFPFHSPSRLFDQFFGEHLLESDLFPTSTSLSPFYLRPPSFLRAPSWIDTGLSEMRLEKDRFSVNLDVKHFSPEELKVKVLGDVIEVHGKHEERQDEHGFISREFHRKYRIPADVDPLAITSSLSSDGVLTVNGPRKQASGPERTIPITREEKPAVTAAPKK
UniProt A0A8I3NAW5: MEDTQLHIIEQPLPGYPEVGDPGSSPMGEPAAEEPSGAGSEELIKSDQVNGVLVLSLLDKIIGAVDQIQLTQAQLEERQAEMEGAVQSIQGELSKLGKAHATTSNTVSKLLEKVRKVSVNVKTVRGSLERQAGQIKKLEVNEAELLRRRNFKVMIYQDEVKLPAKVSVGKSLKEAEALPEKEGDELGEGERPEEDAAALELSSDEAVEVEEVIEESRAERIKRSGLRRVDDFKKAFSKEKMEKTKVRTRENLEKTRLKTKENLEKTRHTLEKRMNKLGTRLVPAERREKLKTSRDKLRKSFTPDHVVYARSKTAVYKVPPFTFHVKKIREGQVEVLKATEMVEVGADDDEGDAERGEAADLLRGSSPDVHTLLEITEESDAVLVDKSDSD

desmocollin 2a-BirA-myc [1] = biological target: desmocollin 2a-BirA-myc (UniProt Q02487); assay: proximity labelling
desmocollin 2a-BirA-myc [2] = biological target: desmocollin 2a-BirA-myc (UniProt Q02487); assay: condition: only cells confluent for 1 day
desmocollin 2a-BirA-myc [3] = biological target: desmocollin 2a-BirA-myc (UniProt Q02487); assay: condition: only cells confluent for 5 days
[4] = biological target: T2, plakoglobin tagged with BirA-myc (PG*; merged data of plakoglobin-BirA-myc and myc-BirA-plakoglobin) (UniProt P14923); assay: proximity labelling
T2 sequence: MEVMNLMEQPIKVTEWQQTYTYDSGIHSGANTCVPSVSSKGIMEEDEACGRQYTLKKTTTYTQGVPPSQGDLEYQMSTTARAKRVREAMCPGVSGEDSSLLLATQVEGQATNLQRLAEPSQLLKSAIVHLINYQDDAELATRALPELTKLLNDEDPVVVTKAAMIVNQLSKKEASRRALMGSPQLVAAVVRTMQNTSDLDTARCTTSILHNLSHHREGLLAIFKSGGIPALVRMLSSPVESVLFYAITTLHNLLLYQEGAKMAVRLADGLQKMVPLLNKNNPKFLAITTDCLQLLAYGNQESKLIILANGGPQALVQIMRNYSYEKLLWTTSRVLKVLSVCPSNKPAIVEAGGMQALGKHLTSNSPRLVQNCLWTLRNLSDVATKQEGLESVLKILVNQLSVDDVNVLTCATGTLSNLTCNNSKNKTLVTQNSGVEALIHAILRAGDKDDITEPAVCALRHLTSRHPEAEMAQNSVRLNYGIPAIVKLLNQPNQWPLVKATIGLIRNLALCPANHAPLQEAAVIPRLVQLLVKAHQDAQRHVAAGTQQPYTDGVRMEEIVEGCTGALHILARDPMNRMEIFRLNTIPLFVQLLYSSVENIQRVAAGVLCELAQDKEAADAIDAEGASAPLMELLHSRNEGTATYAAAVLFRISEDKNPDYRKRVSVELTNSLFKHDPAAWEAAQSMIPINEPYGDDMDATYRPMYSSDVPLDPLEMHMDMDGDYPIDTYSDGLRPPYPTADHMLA

Substance | binding (myc-BirA-plakophilin 2a) | binding (desmocollin 2a-BirA-myc [1]) | binding (desmocollin 2a-BirA-myc [2]) | binding (desmocollin 2a-BirA-myc [3]) | binding [4]
HSP HSPB1 (from UniProt P42929 1-209) | binds |  |  |  | 
caveolae associated protein 3 (from UniProt A0A8I3N1D8 1-386) |  | binds | no binding |  | 
claudin 1 (from UniProt A0A8I3PHM6 1-211) |  | binds |  | no binding | 
high mobility group protein 1 (from UniProt Q6YKA4 1-215) | binds | binds |  |  | binds
high mobility group protein 2 (from UniProt A0A8I3P9Q5 1-210) | binds | binds |  |  | binds
myosin 1E (from UniProt A0A8I3NQ19 1-1108) |  |  |  |  | binds

Results, then the substance that gave them:

binding (myc-BirA-plakophilin 2a) | binding (desmocollin 2a-BirA-myc [1]) | binding (desmocollin 2a-BirA-myc [2]) | binding (desmocollin 2a-BirA-myc [3]) | binding [4] | Substance
binds |  |  |  |  | HSP CRYAB (from UniProt A0A8I3MR05 1-175)
 | binds | no binding |  |  | caveolae associated protein 1 (from UniProt A0A8I3NAW5 1-390)
